Laboratory results reported in US20130338077A1 (INDIANA UNIVERSITY RESEARCH AND TECHNOLOGY, published 2013).
No constants are given. Whether binding was seen depends on the method and setting. Some results given as binding are weak or reduced against the parent protein; the word gives no strength.

Sequences of proteins named here, by UniProt entry; tags and fusion partners are left off.
UniProt Q04206: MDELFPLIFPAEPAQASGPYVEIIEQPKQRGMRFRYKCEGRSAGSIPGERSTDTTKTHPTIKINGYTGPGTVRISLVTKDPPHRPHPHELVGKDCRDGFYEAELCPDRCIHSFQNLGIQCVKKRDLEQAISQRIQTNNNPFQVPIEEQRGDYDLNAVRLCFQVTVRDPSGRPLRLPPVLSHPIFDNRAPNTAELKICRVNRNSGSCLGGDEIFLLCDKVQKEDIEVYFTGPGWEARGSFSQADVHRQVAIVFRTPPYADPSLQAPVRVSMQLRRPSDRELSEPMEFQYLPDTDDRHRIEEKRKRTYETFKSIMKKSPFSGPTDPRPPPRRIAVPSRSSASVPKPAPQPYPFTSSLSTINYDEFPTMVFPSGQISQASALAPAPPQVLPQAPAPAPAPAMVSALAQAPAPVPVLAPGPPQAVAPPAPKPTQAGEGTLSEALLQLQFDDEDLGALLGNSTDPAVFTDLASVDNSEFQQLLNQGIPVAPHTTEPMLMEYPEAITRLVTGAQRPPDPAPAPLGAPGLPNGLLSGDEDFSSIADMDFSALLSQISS

How the values were obtained:
[1] = biological target: recombinant human p65 protein, full-length, with DDK (r-p65:DDK) (human) (UniProt Q04206); test: Scatchard plot of the ELISA data for GILZ-P and r-p65
[2] = biological target: recombinant human p65 protein, full-length, with DDK (r-p65:DDK) (human) (UniProt Q04206); test: kinetic ELISA: plate-bound GILZ-P probed with r-p65, velocity as mean optical density/min
[3] = biological target: recombinant human p65 protein, full-length, with DDK (r-p65:DDK) (human) (UniProt Q04206); test: ELISA: plates coated with falling concentrations of GILZ-P, probed with 40 uM r-p65:DDK, detected with anti-DDK

- binding [1]: binds
- binding [2]: binds
- binding [3]: binds
Binder: CLSPEEPAPESPQVPEAPGGSAV (amino terminal acetylation; C-terminal peptide amide) [GILZ-peptide (GILZ-P), synthetic peptide from the carboxy terminus of GILZ]
